Source: paper PMC12132915 (2025)

Assay: general procedure: Fmoc solid-phase peptide synthesis; Rink amide; DIC/Oxyma; HATU/DIEA for benzoic acid derivatives
Conditions: whole synthesis, scale 0.1 mmol

Substance: OMe-Ald-W5
- isolated yield (overall): 10% overall yield
- isolated mass: 22 mg
